From PMC8364028 come the findings set out here.

Protein sequences, listed by entry. Tags and fused reporters are not part of them.
UniProt P04406: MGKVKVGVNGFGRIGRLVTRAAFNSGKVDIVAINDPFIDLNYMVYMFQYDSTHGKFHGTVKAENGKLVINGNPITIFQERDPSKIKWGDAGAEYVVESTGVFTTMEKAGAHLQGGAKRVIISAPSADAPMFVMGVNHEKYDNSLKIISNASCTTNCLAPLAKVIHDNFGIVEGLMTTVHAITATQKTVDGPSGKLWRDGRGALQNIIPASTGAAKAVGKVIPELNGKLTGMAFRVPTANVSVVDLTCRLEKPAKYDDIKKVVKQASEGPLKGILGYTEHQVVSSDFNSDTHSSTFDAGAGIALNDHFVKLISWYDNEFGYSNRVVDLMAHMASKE

These are yes or no findings as the source states them, for the method shown. In cells and extracts the contact can be indirect. Here binding means that the protein was enriched with, or labelled near, the bait; the list need not be complete.

T1: Maspin (SERPINB5) (human (endogenous in MCF-10A)) (UniProt P36952)
T1 sequence: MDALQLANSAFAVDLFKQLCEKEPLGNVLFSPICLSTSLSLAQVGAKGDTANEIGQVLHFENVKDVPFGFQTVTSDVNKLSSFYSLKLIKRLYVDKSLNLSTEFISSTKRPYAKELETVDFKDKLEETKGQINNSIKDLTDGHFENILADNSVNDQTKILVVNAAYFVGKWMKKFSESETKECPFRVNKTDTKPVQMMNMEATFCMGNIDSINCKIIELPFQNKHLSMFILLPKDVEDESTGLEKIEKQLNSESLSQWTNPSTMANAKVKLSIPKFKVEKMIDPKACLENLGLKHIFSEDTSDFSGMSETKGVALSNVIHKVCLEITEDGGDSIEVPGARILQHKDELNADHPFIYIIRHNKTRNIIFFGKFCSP

B1: hnRNPM (protein, UniProt P52272 1-730)
chain: MAAGVEAAAEVAATEIKMEEESGAPGVPSGNGAPGPKGEGERPAQNEKRKEKNIKRGGNRFEPYANPTKRYRAFITNIPFDVKWQSLKDLVKEKVGEVTYVELLMDAEGKSRGCAVVEFKMEESMKKAAEVLNKHSLSGRPLKVKEDPDGEHARRAMQKVMATTGGMGMGPGGPGMITIPPSILNNPNIPNEIIHALQAGRLGSTVFVANLDYKVGWKKLKEVFSMAGVVVRADILEDKDGKSRGIGTVTFEQSIEAVQAISMFNGQLLFDRPMHVKMDERALPKGDFFPPERPQQLPHGLGGIGMGLGPGGQPIDANHLNKGIGMGNIGPAGMGMEGIGFGINKMGGMEGPFGGGMENMGRFGSGMNMGRINEILSNALKRGEIIAKQGGGGGGGSVPGIERMGPGIDRLGGAGMERMGAGLGHGMDRVGSEIERMGLVMDRMGSVERMGSGIERMGPLGLDHMASSIERMGQTMERIGSGVERMGAGMGFGLERMAAPIDRVGQTIERMGSGVERMGPAIERMGLSMERMVPAGMGAGLERMGPVMDRMATGLERMGANNLERMGLERMGANSLERMGLERMGANSLERMGPAMGPALGAGIERMGLAMGGGGGASFDRAIEMERGNFGGSFAGSFGGAGGHAPGVARKACQIFVRNLPFDFTWKMLKDKFNECGHVLYADIKMENGKSKGCGVVKFESPEVAERACRMMNGMKLSGREIDVRIDRNA

The experiment has as its target T1, Maspin (SERPINB5) (human (endogenous in MCF-10A)). Description: affinity purification with mass spectrometry; starved MCF-10A cells treated with EGF for 5, 15 and 60 min; sonicated in detergent-free buffer A (1.5 mM EGTA, 1 mM EDTA, 1 mM DTT); 500 µg extract, IP with anti-maspin, sepharose G beads; LTQ-Orbitrap Velos; proteins found only in EGF-treated samples.
In the case of “GAPDH (glyceraldehyde-3-phosphate dehydrogenase) (from UniProt P04406 1-335) (enzyme)”, the binding entry is reported as “binds”. Turning to hnRNP E (human (endogenous in MCF-10A)), the binding entry is “binds”. In the case of hnRNP H (human (endogenous in MCF-10A)), the binding result was “binds”. The result for B1 reads “binds”.
